Measurements: patent publication US9809560B2, “Ligands and methods for labeling biomolecules in vivo” (Albert Einstein College of Medicine, Inc., priority 2010, dated 2017)
Some results were stated once for a whole list of compounds, not compound by compound.

System: zebrafish embryos
Assay: Imaging of fucosylated glycans in zebrafish embryos microinjected with GDP-FucAl
Format: in vivo
Settings: 10 hpf embryos, 488-azide, [Cu]=50 μM
Description: Zebrafish embryos at the one-cell or two-cell stage were microinjected in the yolk with 1 nL of a 20 mM solution of GDP-FucAl (or GDP-fucose) and either rhodamine-dextran (5% w/v) or phenol red (0.1% w/v) in 0.2 M KCl as a tracer. The embryos were allowed to develop to 5 hpf, at which point they were manually dechorionated. The dechorionated embryos were cultured in E3 embryo medium at 28° C. for an additional 3 h before transferring to 1% agarose-coated 96-well plates containing 92 μL embryo medium using a fire-polished wide-bore Pasteur pipette. Alexa Fluor-488 azide (100 μM from a 1.75 mM stock in H2O) was added to each well, followed by BTTES-CuSO4 or BTTA-CuSO4 6:1 complex ([Cu]=50 μM from 2.5 mM stock). […] After mounting on a slide or 50 mm glass bottom dishes (Matek) in 1.5-3% methyl cellulose and E3 medium, the embryos were ready for imaging by confocal microscopy.
To image fucosylated glycans in zebrafish embryos, GDP-FucAl was synthesized chemoenzymatically and microinjected embryos at the one-cell stage with 20 pmol of GDP-FucAl (FIG. 4B). […] Robust labeling of the treated embryos was achieved within 1-3 min reaction (FIG. 4C), and only background fluorescence was detected for control embryos microinjected with GDP-fucose (FIG. 10). […]

CC(C)(C)n1cc(CN(Cc2cn(CC(=O)O)nn2)Cc2cn(C(C)(C)C)nn2)nn1 [BTTAA, 2-(4-((bis((1-tert-butyl-1H-1,2,3-triazol-4-yl)methyl)amino)methyl)-1H-1,2,3-triazol-1-yl)acetic acid]
reaction time for robust labeling of embryos: 1 to 3 min
